# Measured values taken from publication PMC7819943, “Rice protein-binding microarrays: a tool to detect cis-acting elements near promoter regions in rice”.
# By UniProt entry, the sequences of proteins in these tests, tags left out.
# UniProt Q0JBA9, entry or part of it: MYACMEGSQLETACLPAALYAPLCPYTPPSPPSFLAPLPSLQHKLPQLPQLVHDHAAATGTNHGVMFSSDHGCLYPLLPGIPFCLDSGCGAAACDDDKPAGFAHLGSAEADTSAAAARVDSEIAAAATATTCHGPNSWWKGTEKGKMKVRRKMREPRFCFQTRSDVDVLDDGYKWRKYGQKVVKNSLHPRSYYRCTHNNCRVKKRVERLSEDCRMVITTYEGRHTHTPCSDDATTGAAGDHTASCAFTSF
# The list shows a part of the results.
# Target: OsWRKY34 (Oryza sativa, UniProt Q0JBA9 1-250)
# Test: protein-binding microarray (RPBM); PBS, 2% BSA, 51.3 ng/ul salmon testes DNA, 50 uM zinc acetate, 200 nM TF, 25 C, 1 h; high values mean tight binding
# Conditions: protein: recombinant; tags: N-terminal polyhistidine and DsRed monomer fusion (pET32a); label: CyDye5-dUTP incorporated in the synthesized complementary strand; 3' TTTTT single-stranded linker to array surface; dsDNA, one strand shown
# Outline: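 The binding signal is fluorescence intensity per feature, in arbitrary units, read on an Axon 4000B scanner. Polyhistidine- and DsRed-tagged transcription factors (N-terminal fusions) from E. coli BL21-CodonPlus were purified on Ni–NTA and applied at 200 nM for 1 h at 25 °C to a double-stranded, BSA-blocked custom Agilent array in buffer with 50 µM zinc acetate.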
row,Sequence,binding signal
1,CCAGCCACCAGCTCGATCCTTTCTTCCTCGTTCTCGCGATCGGAGTCACCTAGTGCAG,8050 fluorescence intensity (a.u.)
2,ACCGATCGTACGTCTCCTCAGCTCATCCGCTTGCCTCGTCCGGAGTCACCTAGTGCAG,11700 fluorescence intensity (a.u.)
3,AAGGGTGTGTTAGAGAGAGATGGAGATGTGCATGGATGACCGGAGTCACCTAGTGCAG,8130 fluorescence intensity (a.u.)
4,CAGCCACACGCATGCGCACTTCTCCCACTCTCTCTCTCTCCGGAGTCACCTAGTGCAG,8100 fluorescence intensity (a.u.)
5,GCCGGCGCTCTCGCAGTTGCCGCCGCCGCCGCCGCGAACGCGGAGTCACCTAGTGCAG,8820 fluorescence intensity (a.u.)
6,TTTGCCATTGTTCATTGGTTTTCTCTCGTATCTCTAAGACCGGAGTCACCTAGTGCAG,9360 fluorescence intensity (a.u.)
7,GCAGCGAGTGCTCTGTCTTTGCCCATCGCCTGACGCCGCACGGAGTCACCTAGTGCAG,8560 fluorescence intensity (a.u.)
8,TTGAGGGGAGGGTAGTAGTAGCTAAGTTAGGGCAAAGATGCGGAGTCACCTAGTGCAG,12600 fluorescence intensity (a.u.)
9,CGGGTCAATGCTGAGATAAGGTCCGGTGCTGAGTGGCGCACGGAGTCACCTAGTGCAG,8680 fluorescence intensity (a.u.)
10,GAGTCCGCCTCCACCTCCACCTCTGCTTCAGCCACAGATGCGGAGTCACCTAGTGCAG,8080 fluorescence intensity (a.u.)
11,CCAAAACGCAGAACTCGTTTCCCGTCTCGTCCGCATCGATCGGAGTCACCTAGTGCAG,8120 fluorescence intensity (a.u.)
12,TGTTCGACATGTTGCGCATATTTGATCTGTTCATGTTTTACGGAGTCACCTAGTGCAG,10100 fluorescence intensity (a.u.)
13,GGCCCACCGTCGCACTCGCGCCTTCCGCTGCTCCGTTGCCCGGAGTCACCTAGTGCAG,8880 fluorescence intensity (a.u.)
14,CTCCTTTTCAATTTCGCTTTTCTTTCATACGGAATTCCTTCGGAGTCACCTAGTGCAG,8330 fluorescence intensity (a.u.)
15,TGTGGAGTTTGAGGATTGCACAATAATCTCAGGGGCGGGCCGGAGTCACCTAGTGCAG,8590 fluorescence intensity (a.u.)
16,ATTTCTTTTTGTTGTGTTATCGTGTTGTTTCGTCACTAGTCGGAGTCACCTAGTGCAG,19600 fluorescence intensity (a.u.)
17,ACCTGTGATGAGTTTCCTTCATCACCCACGTCTCTTTCTACGGAGTCACCTAGTGCAG,10500 fluorescence intensity (a.u.)
18,GAGTTGGTTCCTTCTGTCCTCCATAGATATATTACAGTTTCGGAGTCACCTAGTGCAG,8160 fluorescence intensity (a.u.)
19,ATTATTTTTTATATGCTGATGCCTCTAACACGTCTCTCCACGGAGTCACCTAGTGCAG,8850 fluorescence intensity (a.u.)
20,ATTATATGCTAATTACTTTCTCGTTTTACGTACACCAACTCGGAGTCACCTAGTGCAG,8420 fluorescence intensity (a.u.)
21,GTAATTCTTTCCATTTCCAAAAAGGCACGCTCTGAGTTACCGGAGTCACCTAGTGCAG,8110 fluorescence intensity (a.u.)

row,Sequence,binding signal
1,TCGGGTTTCTTTTGCCCCTTTTCTTTCGCCAGCTTTTGCACGGAGTCACCTAGTGCAG,11200 fluorescence intensity (a.u.)
2,TTTTCTTGGTGGTTCTAGAGGTTGTTTTGCATATTTAATACGGAGTCACCTAGTGCAG,11900 fluorescence intensity (a.u.)
3,TTGGTCATCGTCTTCGCCTCCGACGCCGCCTGCTTCTTCGCGGAGTCACCTAGTGCAG,11000 fluorescence intensity (a.u.)
4,TTTGGTCGATTGCTGCTGCTGTGGTGGTGGTGGACTGGTGCGGAGTCACCTAGTGCAG,10800 fluorescence intensity (a.u.)
5,TTTCACATTATATATGTTTTGGACTCCATATCCATATGAACGGAGTCACCTAGTGCAG,8020 fluorescence intensity (a.u.)
6,ATTGGGTTTAGTACTTTGGTTTGACTATGTTGAAGATAAACGGAGTCACCTAGTGCAG,8770 fluorescence intensity (a.u.)
7,CTGGCGAGCAGAGCAGGGGAGGGGAGGGGAGGGGATCCTGCGGAGTCACCTAGTGCAG,15800 fluorescence intensity (a.u.)
8,GGGTTTGTCCCTAATTGGTCTTTTGCCGACGAGCTCCATGCGGAGTCACCTAGTGCAG,10000 fluorescence intensity (a.u.)
9,GCTCAGAACATCGGATTCCCCATCCCTAAATATTTAACACCGGAGTCACCTAGTGCAG,9080 fluorescence intensity (a.u.)
10,TATGGTTTCTGTCATTCCGTCAGTGTATATATATCCAGCACGGAGTCACCTAGTGCAG,8380 fluorescence intensity (a.u.)
11,GAATTACATTAAACCTCATGTGTTCCCCATGATAGATGGACGGAGTCACCTAGTGCAG,8440 fluorescence intensity (a.u.)
12,TCGTTCGCCACGAGCTCCCGTTTTGACCACCGCATCCTCCCGGAGTCACCTAGTGCAG,9010 fluorescence intensity (a.u.)
13,CCCTCAAGACGATCTGAGCCGTCCGATCCATCTCCCGCACCGGAGTCACCTAGTGCAG,8210 fluorescence intensity (a.u.)
14,CCTGCTCTGTTTCCGAACTCGATCTCCGCCTCCGACTTTGCGGAGTCACCTAGTGCAG,9670 fluorescence intensity (a.u.)
15,CGTTGAGTTGGTTTAGGGGTGGACTGATTTGCCTTTGCCCCGGAGTCACCTAGTGCAG,12900 fluorescence intensity (a.u.)
16,TAACGGATTCCATCTCTTGATTTCTACTACCACCGTTCGCCGGAGTCACCTAGTGCAG,9880 fluorescence intensity (a.u.)
17,AACCCACCTGCACGCACCGTCCTTACCTCTGTTCGATTGACGGAGTCACCTAGTGCAG,16800 fluorescence intensity (a.u.)
18,CGTTTCAAAATGTTTGACACCGTTGACTTTTTAGTACATGCGGAGTCACCTAGTGCAG,35900 fluorescence intensity (a.u.)
19,GACAATGGTGGGGAGTTTGATGCTGGTGTACCGTAAGATCCGGAGTCACCTAGTGCAG,9360 fluorescence intensity (a.u.)
20,CGCCACTGATCATTTTTTTTTACCTACACTTCTGCTGAACCGGAGTCACCTAGTGCAG,12200 fluorescence intensity (a.u.)
21,CTCATCCCCGTGCGCTGCTGCTGCTGTGTCGTCGTCGTCGCGGAGTCACCTAGTGCAG,8350 fluorescence intensity (a.u.)

row,Sequence,binding signal
1,TTGCAGCGGCAATATCACTAGGTGGTGCACTTGTTTTTGCCGGAGTCACCTAGTGCAG,9180 fluorescence intensity (a.u.)
2,ATTCTCTGACCTAAATGTCTATTCCACGTTCAACCATTTTCGGAGTCACCTAGTGCAG,10200 fluorescence intensity (a.u.)
3,ACGCAACTATCGATCTACTTCCGGTTTATGTCTTTGTTGCCGGAGTCACCTAGTGCAG,11200 fluorescence intensity (a.u.)
4,CACTGATTTTTTTTCTTCTCTCCTTGGAATGATTGCAAAGCGGAGTCACCTAGTGCAG,8620 fluorescence intensity (a.u.)
5,TTTCACAGGCTCTTATTTCTCTCTTTCCTTGACTCTCTCTCGGAGTCACCTAGTGCAG,9110 fluorescence intensity (a.u.)
6,CTTCCTCTTCCTCTTTTCTCGGTGTCTGAATCTCTCCTGACGGAGTCACCTAGTGCAG,9350 fluorescence intensity (a.u.)
7,CAAGCCAGCCTCTCATCCTCGCGTCACCTGAACTATATATCGGAGTCACCTAGTGCAG,8150 fluorescence intensity (a.u.)
8,AGTTGTGGCAAGGATGTGAAAGGGAAGGCATACATGTTCGCGGAGTCACCTAGTGCAG,8350 fluorescence intensity (a.u.)
9,GTCGGTCGCCACCGCTTCTCCGCCCGTCTGCTGCTCCTCCCGGAGTCACCTAGTGCAG,8130 fluorescence intensity (a.u.)
10,AATAAGTTCATCTGAGGTCCCTTAATTTGTCACCGAATCCCGGAGTCACCTAGTGCAG,8900 fluorescence intensity (a.u.)
11,TTCCATCTGCTTTTTTTCGTTCTTTTTTCCATCCATCTTTCGGAGTCACCTAGTGCAG,8530 fluorescence intensity (a.u.)
12,TGAATCCACCATTCTGCTCGCCTGCATCATTGGGAGCTCTCGGAGTCACCTAGTGCAG,9780 fluorescence intensity (a.u.)
13,CCACATCACCCACCGCATTCAGCATCATCAGCAGCCGGAACGGAGTCACCTAGTGCAG,9290 fluorescence intensity (a.u.)
14,CGTCGCCTCCGGATTGGTTTCGCGGCGGCCGGCCGTGTCTCGGAGTCACCTAGTGCAG,8040 fluorescence intensity (a.u.)
15,CTCACTCTCTCACTCTGTCTCCTCTCTCATTATCCTCTCGCGGAGTCACCTAGTGCAG,8370 fluorescence intensity (a.u.)
16,CCTCCTCCACTTCTACCACTGCCATAATAATACCATCACCCGGAGTCACCTAGTGCAG,8830 fluorescence intensity (a.u.)
17,GTTTTGACCCCGGTTTTGTCCCACGTGGCGGCTGAGTCAGCGGAGTCACCTAGTGCAG,8360 fluorescence intensity (a.u.)
18,GGTTGGGGTGTGCTCCATGCTTCGCGGATTGCTGGCTCTGCGGAGTCACCTAGTGCAG,9260 fluorescence intensity (a.u.)
19,TTCAAGCTTTGAATTATTTATTTGTTTGTTTGACTTAAAACGGAGTCACCTAGTGCAG,9310 fluorescence intensity (a.u.)
20,TCTTCTCTCCGCTCTATTTTTTTCATCCTATCGATTTTGCCGGAGTCACCTAGTGCAG,8740 fluorescence intensity (a.u.)
21,TCATACATGCATCCATTTCGCTAATTAATTTGTTCCCTTACGGAGTCACCTAGTGCAG,13400 fluorescence intensity (a.u.)

row,Sequence,binding signal
1,ACTTCACCGGTTTCCGGCGTCCGGCGCGGCGCCTGCAGAACGGAGTCACCTAGTGCAG,9530 fluorescence intensity (a.u.)
2,TATCTGCTTGTACCCTTATCATTATCTTGAGCATTTCATACGGAGTCACCTAGTGCAG,12600 fluorescence intensity (a.u.)
3,TAATTGATTTCTCTGAATGGTCTAATGACTGCTTTACTCTCGGAGTCACCTAGTGCAG,9230 fluorescence intensity (a.u.)
4,TCTTATTGCTGGCTCTGTTGCCCGATCATTGGCATGCATACGGAGTCACCTAGTGCAG,9850 fluorescence intensity (a.u.)
5,TCTCTCTCTCTCTCTCGGTTCCGTTTTCTAGTAACTCCATCGGAGTCACCTAGTGCAG,8720 fluorescence intensity (a.u.)
6,TCCTCACCGCACGCCACACACTGACTCCATACGCACAAGGCGGAGTCACCTAGTGCAG,11700 fluorescence intensity (a.u.)
7,ACCCAACCTAGCACTACCCACTGCTTCGCCTTTTATACCCCGGAGTCACCTAGTGCAG,13500 fluorescence intensity (a.u.)
8,GACAGACCTCACCTTGCTTCGCCGCTCCACTGCCCATGCCCGGAGTCACCTAGTGCAG,8030 fluorescence intensity (a.u.)
9,GTCGTCTGGCTCAGGCTAATTCCGCGCCTGAGTTACATCACGGAGTCACCTAGTGCAG,8790 fluorescence intensity (a.u.)
10,ATCCGTCCCGTCTCCTCGCCCGCCGCCCTCGACTCGCGTCCGGAGTCACCTAGTGCAG,8980 fluorescence intensity (a.u.)
11,GCGCTGTTTTGGTAAAACCTACCATGATCGGTTTTCAGTTCGGAGTCACCTAGTGCAG,8830 fluorescence intensity (a.u.)
12,AAGCCCATCTTTTTCTCCTTTTTCTTTTCTTTTCTTTTTTCGGAGTCACCTAGTGCAG,12400 fluorescence intensity (a.u.)
13,CGTGTTGGGAGGGAAGGGGTCTGAACACCTAGCTAGGTTCCGGAGTCACCTAGTGCAG,8180 fluorescence intensity (a.u.)
14,GTGAGAGAGGCGGCCGGCGCAAGATGGGGAAGGGGATAGGCGGAGTCACCTAGTGCAG,9090 fluorescence intensity (a.u.)
15,CCTTTTTTTTTTTTTTGCTTCTGGTCAAACAAAAACGCTACGGAGTCACCTAGTGCAG,9160 fluorescence intensity (a.u.)
16,ACCTCTGTTTTTAATAGATGACGTGTCGTTGACTTTTTATCGGAGTCACCTAGTGCAG,13300 fluorescence intensity (a.u.)
17,GCTTGCACTCTATCTCTAGCTACTTGTTGACTGGATTGGACGGAGTCACCTAGTGCAG,8230 fluorescence intensity (a.u.)
18,AGGAATAATTGCAAACCTTGTCATTGGCATGTTTTTTCTCCGGAGTCACCTAGTGCAG,8110 fluorescence intensity (a.u.)
19,GATTCTTTCCTTGCAGGCTTCCTTTCCTAGCCAATCAGCCCGGAGTCACCTAGTGCAG,9740 fluorescence intensity (a.u.)
20,TTCTACTTTTGGATGGGGTTTTTTTACCTTACCCGACCGACGGAGTCACCTAGTGCAG,8090 fluorescence intensity (a.u.)
21,TTTATTCTCACTGCTACACGCCTCTTTCCTCTCTCTCTCTCGGAGTCACCTAGTGCAG,8800 fluorescence intensity (a.u.)
